Test results from patent publication US20040191812, “Target-dependent transcription using deletion mutants of N4 RNA polymerase” (published 2004).

Target: T1, N4 mini-vRNAP (His-tagged) (Bacteriophage N4) (UniProt Q859P9)
T1 sequence: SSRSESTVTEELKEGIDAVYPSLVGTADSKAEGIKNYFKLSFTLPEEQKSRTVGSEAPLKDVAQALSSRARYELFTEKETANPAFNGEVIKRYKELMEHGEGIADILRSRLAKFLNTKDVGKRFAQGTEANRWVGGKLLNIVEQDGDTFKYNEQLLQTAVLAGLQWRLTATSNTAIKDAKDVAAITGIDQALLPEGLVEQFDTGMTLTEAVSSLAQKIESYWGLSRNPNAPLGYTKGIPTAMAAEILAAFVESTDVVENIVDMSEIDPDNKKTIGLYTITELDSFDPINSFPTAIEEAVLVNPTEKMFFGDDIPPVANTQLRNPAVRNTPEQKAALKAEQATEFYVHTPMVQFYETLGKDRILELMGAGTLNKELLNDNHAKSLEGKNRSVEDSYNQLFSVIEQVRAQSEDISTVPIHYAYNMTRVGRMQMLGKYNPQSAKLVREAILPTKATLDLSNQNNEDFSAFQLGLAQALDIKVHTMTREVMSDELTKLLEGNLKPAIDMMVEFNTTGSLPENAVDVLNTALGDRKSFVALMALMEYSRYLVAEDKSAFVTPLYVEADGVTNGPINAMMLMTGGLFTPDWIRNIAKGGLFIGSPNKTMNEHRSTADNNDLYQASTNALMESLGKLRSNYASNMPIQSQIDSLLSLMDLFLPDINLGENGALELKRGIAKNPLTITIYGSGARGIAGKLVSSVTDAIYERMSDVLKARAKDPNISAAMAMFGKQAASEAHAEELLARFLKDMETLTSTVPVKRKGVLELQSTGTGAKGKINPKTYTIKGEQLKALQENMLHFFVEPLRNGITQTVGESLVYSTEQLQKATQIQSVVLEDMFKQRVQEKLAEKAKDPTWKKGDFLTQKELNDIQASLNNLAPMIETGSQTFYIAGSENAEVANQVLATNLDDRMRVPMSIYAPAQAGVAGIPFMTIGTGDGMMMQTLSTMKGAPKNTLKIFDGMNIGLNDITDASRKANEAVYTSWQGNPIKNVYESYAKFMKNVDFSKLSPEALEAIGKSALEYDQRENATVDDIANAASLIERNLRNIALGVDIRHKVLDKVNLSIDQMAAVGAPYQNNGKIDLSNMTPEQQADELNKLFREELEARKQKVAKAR
Assay: activity assay
Details: purified recombinant protein, protein details: N-terminal hexahistidine (pBAD), single-stranded DNA

With “TCCCTGTCTTTTGGTTTTGTTTTCTTTCTGGTTTGGTTGCTTTTCTTCTTCCAAAAGAAGCGGAGCTTC [no A ssDNA template]” the “activity on this sequence” value (transcription template in U misincorporation assay, about 1/(5x10^4), variant of control ssDNA template) was “active”.

For “TCCCACACAAAACCTTAACATTTCATACACCATTCCATCCATTACTTCATCCAAAAGAAGCGGAGCTTC [no G ssDNA template]”, the “activity on this sequence” value (transcription template in C misincorporation assay, about 1/(4x10^4), variant of control ssDNA template) was “active”.

In the case of “TGGGAGAGAAAAGGTTAAGATTTGATAGAGGATTGGATGGATTAGTTGATGGAAAAGAAGCGGAGCTTC [no C ssDNA template]”, the “activity on this sequence” value (transcription template in G misincorporation assay, about 1/(5x10^4), variant of control ssDNA template) is reported as “active”.

For “ACCCAGACAAAAGGAAAAGAAAACAAACAGGAAAGGAAGCAAAACAACAACCAAAAGAAGCGGAGCTTC [no T ssDNA template]”, the “activity on this sequence” value (transcription template in A misincorporation assay, about 1/(2x10^4), variant of control ssDNA template) was “active”.

For “TCCCAGACAAAAGGTTAAGATTTCATACAGGATTGGATGCATTACTTCATCCAAAAGAAGCGGAGCTTC [control ssDNA template]”, the “activity on this sequence” value (transcription with UTP, digoxigenin-UTP or biotin-UTP) was “active”.

Tags and fusion partners may be left off the protein sequences shown.
